Measured values as given in PubChem BioAssay (Tox21).
This list was built around the results that the source calls inconclusive (neither active nor inactive); the mix of calls is not that of the screen. A call without a number means that no potency is given here. For part of these data: Potencies beside an inconclusive call are fits to weak or partial responses and may not hold up. The source made the active and inactive calls. Unless noted, calls follow the shape of the full dose curve.

How the values were obtained:
[1] = cAMP Responsive Elements (CRE) small molecule antagonists, cell-based qHTS assay (AID 1963591; active = well fitted inhibition curve with a large enough effect in the signal ratio in the repeat runs, not every such curve was filed as active; inconclusive = weak or mixed curves, or effect the other way; the % refers to the signal ratio); conditions: CRE-bla HEK293T, beta-lactamase FRET ratio; activity change, negative = inhibition: at 92.4 µM (top of the series) unless noted
Summary of the method: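 HEK293T CRE-bla; 18 h preincubation; compound pin-transfer; NKH477 0.25 uM final, 3 h, 37 C; LiveBLAzer FRET substrate 2 h RT.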

[2] = molecular target: Beta-2 adrenergic receptor (Homo sapiens) (UniProt P07550); assay: Adrenergic beta2 receptor (ADRB2) small molecule agonists, cell-based qHTS assay (AID 1963593); conditions: CHO-ADRB2 cells, cAMP HTRF, 30 min; activation: at 92.4 µM (top of the series) unless noted; also: potency is read from the fitted curve at half-maximal effect
Summary of the method: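 CHO cells stably over-expressing ADRB2 were plated overnight at 37C, then dosed with compounds plus a stimulation mix containing 100uM IBMX and 25uM Ro-20-1724 for 0.5hr at room temperature. cAMP was measured by HTRF competition, 1hr.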

[3] = molecular target: Beta-2 adrenergic receptor (Homo sapiens) (UniProt P07550); assay: Adrenergic beta2 receptor (ADRB2) small molecule antagonists, cell-based qHTS assay (AID 1963592); conditions: CHO-ADRB2 cells, isoproterenol-stimulated cAMP HTRF ratio, 0.5 h; activity change, negative = inhibition: at 92.4 µM (top of the series) unless noted; also: nearly all actives have a fitted effect of over 50% in size
Summary of the method: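 Assay format: CHO-ADRB2 cells, 18-20hr seeding at 37C/5% CO2, then compound plus 1nM isoproterenol agonist mix for 0.5hr RT. Homogeneous time-resolved fluorescence cAMP detection after 1hr, expressed as 665/615 nm ratio.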

ClCc1ccccc1
Potency [1]: inactive | Potency [2]: inconclusive: 68.2 µM [inhibitor, single point]

CCNc1nc(Cl)nc(NC(C)C)n1
activity change, negative = inhibition [1]: inconclusive: 18.5%

COc1nc(C)nc(NC(=O)NS(=O)(=O)c2ccccc2Cl)n1
Potency [1]: inactive

Nc1ncn[nH]1
Potency [1]: inactive | Potency [3]: inactive
